Experimental data reported in patent publication US20210078988A1, “MODULATORS OF INDOLEAMINE 2,3-DIOXYGENASE” (GLAXOSMITHKLINE INTELLECTUAL PROPERTY DEVELOPMENT LIMITED, priority 2017, published 2021).
Structures were worked out from names or drawings and are uncertain.

Protein sequences, listed by entry. Tags and fused reporters are not part of them.
UniProt P14902, whole entry: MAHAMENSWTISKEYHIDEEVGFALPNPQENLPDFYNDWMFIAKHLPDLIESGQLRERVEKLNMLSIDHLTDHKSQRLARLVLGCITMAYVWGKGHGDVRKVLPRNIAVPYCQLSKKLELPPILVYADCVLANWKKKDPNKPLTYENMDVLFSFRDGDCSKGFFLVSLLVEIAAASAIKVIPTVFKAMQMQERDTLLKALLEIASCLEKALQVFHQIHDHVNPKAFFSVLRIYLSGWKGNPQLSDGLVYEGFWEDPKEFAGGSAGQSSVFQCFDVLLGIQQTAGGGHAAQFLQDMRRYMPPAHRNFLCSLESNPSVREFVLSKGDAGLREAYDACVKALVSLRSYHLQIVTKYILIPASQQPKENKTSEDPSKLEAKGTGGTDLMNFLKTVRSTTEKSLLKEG

Biological target: indoleamine 2, 3-dioxygenase (IDO1) (Homo sapiens, UniProt P14902)
Assay: PBMC IDO1 assay (kynurenine detection via mass spectrometry)
Settings: human PBMC stimulated with IFN-γ and LPS, 2 days, kynurenine by mass spectrometry

## Cc1ccc(C(=O)NC(CC2CCN(C(=O)CC(F)(F)F)CC2)c2ccccc2)s1 (stereo not shown)
  IDO1 PBMC pIC50: 7.0
